Laboratory results as given in publication PMC11835332.
Changes are numbered by the printed parent chain. In names and notes the source's numbering stands. These are yes or no findings as the source states them, for the method shown. For part of these data: In cells and extracts the contact can be indirect. Some results given as binding are weak or reduced against the parent protein; the word gives no strength. Where a sequence is shown, tags or fusion partners need not be part of it. Each block holds one binder with its values, some of them ahead of it.

How the values were obtained:
[1] = target: T1, His-HSCA2^G87D-Myc (without the mitochondrial targeting peptide) (Arabidopsis) (UniProt Q9LDZ0); test: pull-down; Ni Sepharose; about 10 ug purified His-tagged HSCA2, HSCA2^G87D or SSR1 with BL21(DE3) lysates expressing SSR1, ISU1 or ISU1^T55M without His-tag, 1 hour at 4°C; anti-Myc blot; only the target purified
T1 sequence: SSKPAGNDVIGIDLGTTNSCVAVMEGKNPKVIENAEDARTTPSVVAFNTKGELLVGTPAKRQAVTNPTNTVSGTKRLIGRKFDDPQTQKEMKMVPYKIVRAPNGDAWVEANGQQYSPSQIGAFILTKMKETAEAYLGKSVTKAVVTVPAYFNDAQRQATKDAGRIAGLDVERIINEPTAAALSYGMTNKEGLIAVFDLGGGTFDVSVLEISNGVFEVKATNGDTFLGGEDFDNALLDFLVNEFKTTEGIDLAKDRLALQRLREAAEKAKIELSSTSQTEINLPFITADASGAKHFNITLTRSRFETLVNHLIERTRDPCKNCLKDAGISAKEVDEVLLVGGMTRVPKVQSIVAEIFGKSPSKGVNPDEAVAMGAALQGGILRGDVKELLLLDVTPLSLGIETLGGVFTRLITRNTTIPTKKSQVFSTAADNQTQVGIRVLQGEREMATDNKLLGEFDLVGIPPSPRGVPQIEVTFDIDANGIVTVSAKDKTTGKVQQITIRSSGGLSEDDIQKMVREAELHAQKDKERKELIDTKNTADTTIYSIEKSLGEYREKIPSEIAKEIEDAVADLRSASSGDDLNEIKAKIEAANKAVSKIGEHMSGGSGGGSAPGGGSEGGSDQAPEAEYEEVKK

[2] = target: T2, His-HSCA2-Myc (without the mitochondrial targeting peptide) (Arabidopsis) (UniProt Q9LDZ0); test: as above
T2 sequence: T1 sequence with D37G

[3] = target: T2, His-HSCA2-Myc (without the mitochondrial targeting peptide) (Arabidopsis); test: pull-down; Ni-NTA; His-tagged HSCA2 expressed in E. coli as bait; Myc-tagged ISU1^T55M variants of the LPPVK motif expressed in E. coli
[4] = target: T1, His-HSCA2^G87D-Myc (without the mitochondrial targeting peptide) (Arabidopsis); test: pull-down; Ni Sepharose; purified His-tagged baits with purified tag-excised preys (about 10 ug each in 200 uL), with or without SSR1-Myc; 50 mM Tris-HCl pH 7.4, 50 mM NaCl, 10 mM KCl, 0.1% Tween-20; 4°C; anti-Myc blot; both purified
[5] = target: T2, His-HSCA2-Myc (without the mitochondrial targeting peptide) (Arabidopsis); test: as above
[6] = target: T2, His-HSCA2-Myc (without the mitochondrial targeting peptide) (Arabidopsis); test: native gel or EMSA; BN-PAGE (5%-13%) then SDS-PAGE in the second dimension; about 10 ug of each protein in 200 uL, 4°C one hour; 50 mM Tris-HCl pH 7.4, 50 mM NaCl, 10 mM KCl, 0.1% Tween-20, 100 uM ATP; anti-Myc blot; both purified

- binding [1]: binds
- binding [2]: binds
B1: ISU1-Myc expressed without His-tag, in E. coli lysate (without the mitochondrial targeting peptide) (protein, UniProt O49627 51-167)
chain: PNVGTGLVGAPACGDVMKLQIKVDEKTGQIVDARFKTFGCGSAIASSSVATEWVKGKAMEDVLTIKNTEIAKHLSLPPVKLHCSMLAEDAIKAAVKDYKEKRVKTNGAAAAGETTQA

- binding [3]: binds
B2: Myc-tagged ISU1^T55M of the LPPVK mutant pull-down (Fig 3A) (protein, UniProt O49627 51-167)
chain: B1 chain with T5M

- binding [3]: binds
B3: Myc-tagged ISU1^T55MP127A (protein, UniProt O49627 51-167)
chain: B1 chain with T5M, P77A

- binding [3]: binds
B4: Myc-tagged ISU1^T55ML126A (protein, UniProt O49627 51-167)
chain: B1 chain with T5M, L76A

- binding [4]: binds
- binding [5]: binds
- binding [6]: binds
B5: ISU1-Myc, purified, His-tag excised (without the mitochondrial targeting peptide) (protein, UniProt O49627 51-167)
chain: B1 chain

- binding [3]: binds weakly
B6: Myc-tagged ISU1^T55MAAA (PVK of the LPPVK motif to AAA) (protein, UniProt O49627 51-167)
chain: B1 chain with T5M, P78A, V79A, K80A

- binding [5]: binds
B7: ISU1^T55M-Myc, purified, His-tag excised (without the mitochondrial targeting peptide) (protein, UniProt O49627 51-167)
chain: B1 chain with T5M

- binding [3]: binds
B8: Myc-tagged ISU1^T55MP128S (protein, UniProt O49627 51-167)
chain: B1 chain with T5M, P78S

- binding [2]: binds
B9: ISU1^T55M-Myc expressed without His-tag, in E. coli lysate (without the mitochondrial targeting peptide) (protein, UniProt O49627 51-167)
chain: B1 chain with T5M
